This note sets out measurements from PMC7819943, “Rice protein-binding microarrays: a tool to detect cis-acting elements near promoter regions in rice”.

The list shows a part of the results.

For the assay, the target named is T1, OsSMF1 (Oryza sativa, UniProt Q6ZLB0 1-436).
T1 sequence: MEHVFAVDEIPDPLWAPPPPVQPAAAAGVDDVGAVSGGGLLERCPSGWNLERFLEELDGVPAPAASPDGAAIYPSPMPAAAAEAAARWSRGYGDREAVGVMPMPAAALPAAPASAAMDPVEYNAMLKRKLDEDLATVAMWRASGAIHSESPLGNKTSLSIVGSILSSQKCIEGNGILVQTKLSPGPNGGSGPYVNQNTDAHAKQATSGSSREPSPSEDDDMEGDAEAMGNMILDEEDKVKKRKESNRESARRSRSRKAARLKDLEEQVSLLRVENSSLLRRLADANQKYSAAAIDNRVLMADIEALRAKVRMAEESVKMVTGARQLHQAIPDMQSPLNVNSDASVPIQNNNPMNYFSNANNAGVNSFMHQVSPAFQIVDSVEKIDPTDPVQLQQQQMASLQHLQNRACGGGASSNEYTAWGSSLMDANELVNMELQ
Kind of assay: protein-binding microarray (RPBM); PBS, 2% BSA, 51.3 ng/ul salmon testes DNA, 50 uM zinc acetate, 200 nM TF, 25 C, 1 h; high values mean tight binding. To be noted: protein: recombinant; tags: N-terminal polyhistidine and DsRed monomer fusion (pET32a); chain copies: 2; label: CyDye5-dUTP incorporated in the synthesized complementary strand; 3' TTTTT single-stranded linker to array surface; dsDNA, one strand shown. A digest of the protocol: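 Transcription factors, each fused N-terminally to a polyhistidine tag and DsRed, were expressed in E. coli BL21-CodonPlus and purified on Ni–NTA. A custom Agilent array was made double-stranded by primer extension with Cy5-dUTP and blocked with 2% BSA. It was incubated with 200 nM protein in PBS, 2% BSA, salmon testes DNA and 50 µM zinc acetate at 25 °C for 1 h, then washed. The binding signal is per-feature fluorescence intensity (arbitrary units) read on an Axon 4000B scanner.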
Regarding “ATTCGGATTATTGAATCAGTGTATCAGCACACAACACAACCGGAGTCACCTAGTGCAG”, the binding signal is 36500 fluorescence intensity (a.u.). The result for “AGCCCTATTACTAGAGGGCGCGTGTCAGCCAGATCAGCACCGGAGTCACCTAGTGCAG” reads 6900 fluorescence intensity (a.u.). Next, “TTAATCTTATAATTACGGTCATGTGGTTTTGTGAAATTTACGGAGTCACCTAGTGCAG”: 5500 fluorescence intensity (a.u.); “TGCTTGCTCGCACGCTTGCTGCTGACTAGTAGCTCGCTAGCGGAGTCACCTAGTGCAG”: 4850 fluorescence intensity (a.u.).

With “TATGTGCAAATCAGATAATTCCGCGGTAACAAAGTCAGCGCGGAGTCACCTAGTGCAG”, the binding signal was 3710 fluorescence intensity (a.u.). Regarding “CTAAGGCTTACAATGAATTGAAAGAATTCATAAATTTAATCGGAGTCACCTAGTGCAG”, the binding signal is 3450 fluorescence intensity (a.u.). Next, “CCTCTGTCCTGTGGGCTCCCACCATTCTTGCTGCATGCTGCGGAGTCACCTAGTGCAG”: 3930 fluorescence intensity (a.u.); “CTCCTTTCTTCCTCCTCTGCAAGCCGCCGACGAGGCAAGCCGGAGTCACCTAGTGCAG”: 3790 fluorescence intensity (a.u.). As to “TTCGTAGGATACTATCAAAATCAAGTAAGCTATCTATGATCGGAGTCACCTAGTGCAG”, the binding signal is 3140 fluorescence intensity (a.u.). Next, “AACTTCAGGGCGTGACACCACTCCACCTCTTAAATTAAAGCGGAGTCACCTAGTGCAG”: 4140 fluorescence intensity (a.u.); “AGTTGTGATGTCGCCACGTTGGCGGCCGGCGACTGCGCCACGGAGTCACCTAGTGCAG”: 12000 fluorescence intensity (a.u.); “GCTTGGCGTTCCCGTGGATGACGTCCGCGACGGCCTGGATCGGAGTCACCTAGTGCAG”: 4620 fluorescence intensity (a.u.). The result for “ATAAATGACCTAGCACTTCCCAACTCACTTATTTCTATTGCGGAGTCACCTAGTGCAG” reads 3440 fluorescence intensity (a.u.).

For the sequence “TATATCCGTCACACGTGTGCGCCTCCCACCCATCCACCACCGGAGTCACCTAGTGCAG”, the binding signal was 8250 fluorescence intensity (a.u.).

For the sequence “TCAAACAAGAGTTCACCAAACCGCCCATGCGGCCATGCTGCGGAGTCACCTAGTGCAG”, the binding signal was 17100 fluorescence intensity (a.u.). Next, “CTTGACTACGAAATGTATTCGCTTGCTGACGACGTCTGCTCGGAGTCACCTAGTGCAG”: 5800 fluorescence intensity (a.u.); “ATTTACCACTGGACCTATGTATTATAGACACGTGAGGTCCCGGAGTCACCTAGTGCAG”: 3270 fluorescence intensity (a.u.).

“GTAGTTAGTTAGGTTGTTAGTCGTGTGAGCTGCATGTATACGGAGTCACCTAGTGCAG”: the binding signal is 3320 fluorescence intensity (a.u.). Consider “TTCGGTGGTCACTCGTCAGTCGTGTCGTCTGCTCACGCTCCGGAGTCACCTAGTGCAG”, for which the binding signal was 4380 fluorescence intensity (a.u.).

As for “ATAAAATCATGATACTCGGGATTTATGCGTCACTTGTGGCCGGAGTCACCTAGTGCAG”, the binding signal was 4770 fluorescence intensity (a.u.). Regarding “CTACATTGGCACTCGTTTTCAGGATGGCGATGGCATCAATCGGAGTCACCTAGTGCAG”, the binding signal is 17400 fluorescence intensity (a.u.).

For “TGGGAATTTTGCATGCGCGGCACGCTGATCACTTGCCAGTCGGAGTCACCTAGTGCAG”, the binding signal was 3250 fluorescence intensity (a.u.).

“TCGTCGACGCCGGCGTCACCACCATCCCCTACTTCTTCCGCGGAGTCACCTAGTGCAG”: the binding signal was 5250 fluorescence intensity (a.u.). “TTTAATCTGCAGATTGTCCTGGTTCATCAGTATTGCTGTACGGAGTCACCTAGTGCAG”: the binding signal is 20400 fluorescence intensity (a.u.).

For the sequence “GCGGCGGCCGGATCCGGCGAGCTTGCGGCGCCAGGCTAGGCGGAGTCACCTAGTGCAG”, the binding signal is 21700 fluorescence intensity (a.u.). For the sequence “ATTCTAATGACACCTAAGTGCCACGTCAACGCCACGTGGACGGAGTCACCTAGTGCAG”, the binding signal is 45100 fluorescence intensity (a.u.). The result for “GCCCGCGCTGTGAGCGTCTAATGCACACCTTCACTCCGTGCGGAGTCACCTAGTGCAG” reads 4800 fluorescence intensity (a.u.).

Turning to “ATTTTGTTAGTATCATAGTGCTAGTATCATCATTTTGCTGCGGAGTCACCTAGTGCAG”, the binding signal is 3820 fluorescence intensity (a.u.). Next, “TAAATGTCAGCTGATGCCAATAGTTTCTGTGCTGCTGCCACGGAGTCACCTAGTGCAG”: 27600 fluorescence intensity (a.u.). Regarding “ACCCACACACCCACACCCACACGTCAAAGACCCACGGTTTCGGAGTCACCTAGTGCAG”, the binding signal was 3160 fluorescence intensity (a.u.).

On to “TCTATCGATTTCTCCCTTCCTTCTCTTTCTTCTTTCTTTCCGGAGTCACCTAGTGCAG”, for which the binding signal is 21800 fluorescence intensity (a.u.). Next, “GAAGACTACAAACGCGCTGCGAAAGACGTGGCTCCGTTTTCGGAGTCACCTAGTGCAG”: 4120 fluorescence intensity (a.u.); “CGGGCTCCGCGCCGACATGGACGCGCTCCCCATCCAGGTCCGGAGTCACCTAGTGCAG”: 30700 fluorescence intensity (a.u.); “AAGTCGGCAAATGCAGGGGTCCCTTCCGTTACCTCTGCGACGGAGTCACCTAGTGCAG”: 3840 fluorescence intensity (a.u.). For the sequence “CTCCCGGTCCCATGTCACCGACACCGTTGTCGCCCGGTTCCGGAGTCACCTAGTGCAG”, the binding signal was 4890 fluorescence intensity (a.u.). The result for “CACCATGCTCAAGCCACAATTGATAATTTTGTTGGCAGAGCGGAGTCACCTAGTGCAG” reads 38600 fluorescence intensity (a.u.). Next, “GTTCCCTCCACGTGGGCCATGCTTCCCTGCTTTCTACTTCCGGAGTCACCTAGTGCAG”: 17400 fluorescence intensity (a.u.); “TGGCTGCCTATATGTAGAGCCCAACACCATGCAAAATGCACGGAGTCACCTAGTGCAG”: 14600 fluorescence intensity (a.u.); “CAAACCCAAACCAACCCGTTCCACGTCTTTCCCCACGACCCGGAGTCACCTAGTGCAG”: 4970 fluorescence intensity (a.u.). The result for “CTCGATCCTTTCGAGGCTCGACCACTTGGGCCGCAGTGACCGGAGTCACCTAGTGCAG” reads 4090 fluorescence intensity (a.u.); that for “AGTAGCGAGCTACTCTCTCTGGTCATCAAGCTTTGAGTGGCGGAGTCACCTAGTGCAG”, 3150 fluorescence intensity (a.u.). Turning to “CCTGCTCCCCGTCGCCGACGGCGTCACGCTGTGCCGCCGCCGGAGTCACCTAGTGCAG”, the binding signal was 5480 fluorescence intensity (a.u.).
